# Library screen at single concentrations

The chains behind the UniProt entries cited, without tags or fusion partners. Residues count along the entry.
UniProt A4I591, 1-473: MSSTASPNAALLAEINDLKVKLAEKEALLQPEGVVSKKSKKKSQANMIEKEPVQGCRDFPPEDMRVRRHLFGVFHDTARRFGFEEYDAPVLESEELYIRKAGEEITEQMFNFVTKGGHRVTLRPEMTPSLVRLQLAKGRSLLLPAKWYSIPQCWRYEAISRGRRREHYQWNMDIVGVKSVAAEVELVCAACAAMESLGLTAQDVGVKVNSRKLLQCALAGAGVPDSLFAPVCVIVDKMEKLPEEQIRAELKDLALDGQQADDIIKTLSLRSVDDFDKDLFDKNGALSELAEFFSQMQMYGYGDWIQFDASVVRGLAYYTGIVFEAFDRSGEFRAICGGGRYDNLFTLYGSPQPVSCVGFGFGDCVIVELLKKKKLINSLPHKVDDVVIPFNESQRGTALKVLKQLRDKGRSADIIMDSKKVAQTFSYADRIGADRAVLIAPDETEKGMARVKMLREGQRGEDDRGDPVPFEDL

Source: ChEMBL document CHEMBL3988442, “University of Dundee, Small-Polar-MMV Screening Library” (2021).

Each number is a percent effect as filed. The controls that fix the scale are not given in the record; negative values are as filed. This is an unselected part of the compounds tested.

Toxoplasma: 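Assay of Toxoplasma gondii numbers, read through their beta-galactosidase reporter with a colour substrate. Compounds at 10 µM. The record gives no direction; the compounds picked for IC50 retests had high values, so higher reads as fewer parasites. About 67,000 compounds were tested under these conditions; 0.38% (about 260) showed 50% or more at least once.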
LiHisRS: 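Enzyme assay of histidyl-tRNA synthetase; the read-out is not stated. Target: Histidine-tRNA ligase, Leishmania infantum (UniProt A4I591). Tested at 30 µM. Higher reads as stronger inhibition (inferred: compounds with an IC50 in retests scored well above the rest). The assay is labelled LdHisRS but filed under L. infantum. Of about 69,000 compounds tested this way, about 410 (0.6%) reached 50% or more in at least one test.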

Cc1cc(C)c(CNC(=O)CCC2CCCO2)c(=O)[nH]1 (stereo unspecified) gave Toxoplasma: -14.85%; LiHisRS: 16.51%. With COc1ccc(S(=O)(=O)C(F)(F)F)cc1NC(=O)CSCC#N the screen gave Toxoplasma: -1.418%; LiHisRS: 14.29%. CCSc1ncc(-c2cc(C3CC3)nc(N)c2C#N)cn1 read Toxoplasma: 31.13%; LiHisRS: 7.447%. For CCc1ccc(C(=O)NC2CCN(c3cnn(C)c3)C2=O)o1 (stereo unspecified) the result was Toxoplasma: 7.283%; LiHisRS: 16.98%. Cc1nnc2sc(-c3cc(C(C)C)n[nH]3)nn12 read Toxoplasma: -22.08%; LiHisRS: -2.5%. CC(=O)N1CCC2(CC1)CN(CC(C)C)CC21CCNC1=O (stereo unspecified) read LiHisRS: 13.59%. With Cc1cnn(C2CCCN(C(=O)CCCOc3ccccc3F)C2)c1 (stereo unspecified) the screen gave Toxoplasma: 3.439%; LiHisRS: 17.09%.

For C[C@H]1CN(C(=O)c2ccoc2)C[C@@]12CCN(CCN(C)C)C2=O.O=C(O)C(F)(F)F the result was Toxoplasma: -5.449%. With CC(C)CN1CCN(Cc2nc3ccccc3[nH]2)[C@H]2CS(=O)(=O)C[C@H]21 the screen gave LiHisRS: 15.09%. With O=C(N1CCCC1)N1C[C@H]2CC[C@@]3(N=C(c4ccccc4)NC3=O)[C@H]2C1 the screen gave LiHisRS: 34.29%. CCN1CCC2(CC1)OCCN2C(=O)c1ccc(OC)c(Cl)c1.Cl read Toxoplasma: 7.278%. [H][C@]12CCN(C(C)=O)CC[C@@]1([H])S(=O)(=O)N(CC)C2 read Toxoplasma: -1.674%. Cc1nc(C)c(C(=O)NCCn2nc3ccccn3c2=O)s1 gave Toxoplasma: 27.38%; LiHisRS: 11.01%. For COC(=O)c1ccc(Cn2cccc(C(F)(F)F)c2=O)s1 the result was Toxoplasma: 0.3199%; LiHisRS: 15.56%.

With Cc1noc(NCc2ccc(F)cc2F)n1 the screen gave Toxoplasma: 2.077%; LiHisRS: -3.175%. Cc1occc1C(=O)NCC1OCCc2cn(C)nc21.O=C(O)C(F)(F)F (stereo unspecified) gave Toxoplasma: -2.715%. COCCC1(C(=O)O)CCCN(C(=O)c2cc(C)oc2C)C1 (stereo unspecified) read Toxoplasma: -4.326%; LiHisRS: 1.266%. With CCC(CO)N(Cc1cccs1)C(=O)Cc1ccncc1 (stereo unspecified) the screen gave Toxoplasma: -1.919%; LiHisRS: 10.75%. For [H][C@@]12CCN(Cc3cccnc3)C(=O)[C@@]1([H])CN(Cc1ccoc1)C2 the result was Toxoplasma: 0.5854%. Result for O=C(c1ccco1)N1CC[C@@H](N2CCOCC2)[C@@H]1Cc1ccccc1 was Toxoplasma: -13.15%; LiHisRS: 15%. With CCN1CC2(CC1=O)CN(C(=O)N(C)C)CCN(S(C)(=O)=O)C2 (stereo unspecified) the screen gave Toxoplasma: -1.33%; LiHisRS: -15.38%.

For NC(=O)CN1CCC(Nc2ccnc3ccc(Cl)cc23)CC1 the result was Toxoplasma: -7.633%; LiHisRS: 19.18%. CCOc1ccccc1C(CC(=O)Nc1ccc(C)cn1)NC(C)=O (stereo unspecified) gave Toxoplasma: -22.02%; LiHisRS: 8.8%. O=C(c1cc(C2CC2)[nH]n1)N1CCN(Cc2ccccc2)CC1 read Toxoplasma: -15.19%; LiHisRS: 12.5%. Result for Cc1csc2ncnc(N3CCC(Cn4cc(C(C)(C)N)nn4)CC3)c12 was Toxoplasma: -44.47%; LiHisRS: 26.51%. Cc1ccccc1C1CCN(C(=O)CCNS(C)(=O)=O)C1 (stereo unspecified) read Toxoplasma: 4.042%; LiHisRS: 5.479%. CCn1ncc2c1C(COCC1CC1)N(C(=O)c1ccncn1)CC2.O=C(O)C(F)(F)F (stereo unspecified) gave Toxoplasma: -2.713%. For O=C(CCc1ccco1)Nc1cccc(S(=O)(=O)C(F)F)c1 the result was Toxoplasma: -4.139%; LiHisRS: -2.564%.

NC(=O)c1cncc(N2CCN(Cc3cccc4nsnc34)CC2)n1 read Toxoplasma: 1.726%; LiHisRS: 23.94%. Cc1nc(C)c(CC(=O)Nc2nnc(C3CC3)s2)c(=O)[nH]1 gave Toxoplasma: -9.886%; LiHisRS: 9.174%. O=C(NCc1ccccc1CN1CCC(O)CC1)Nc1ccncc1 read Toxoplasma: -4.732%; LiHisRS: 15.38%. CCNC(=O)c1cnc(Cc2ccc(F)cc2)s1 gave Toxoplasma: -10.35%; LiHisRS: 12.62%. For Cc1noc(C)c1CN1CCO[C@H]2CN(Cc3nccn3C)C[C@H]21 the result was LiHisRS: -0.885%. For Nc1ccc(CC2CCCN(Cc3c[nH]cn3)C2)nn1 (stereo unspecified) the result was LiHisRS: 23.94%. For CSCc1ccc(N(C)CC2CCCN(C(C)C)C2)nc1 (stereo unspecified) the result was Toxoplasma: -0.1394%; LiHisRS: 19.74%.

Some entries from above, unchanged:

- [H][C@]12CCN(C(C)=O)CC[C@@]1([H])S(=O)(=O)N(CC)C2 | Toxoplasma: -1.674%
- O=C(NCc1ccccc1CN1CCC(O)CC1)Nc1ccncc1 | Toxoplasma: -4.732%; LiHisRS: 15.38%
- CCn1ncc2c1C(COCC1CC1)N(C(=O)c1ccncn1)CC2.O=C(O)C(F)(F)F (stereo unspecified) | Toxoplasma: -2.713%
- Cc1nc(C)c(CC(=O)Nc2nnc(C3CC3)s2)c(=O)[nH]1 | Toxoplasma: -9.886%; LiHisRS: 9.174%